Laboratory results: patent publication EP1414391B1, “Composition and METHOD of GENTLY colouring HAIR using 2-chloro-4-aminophenol as oxidation base” (Henkel Kommanditgesellschaft auf Aktien, priority 2000, dated 2002)

Test: Dyeing of hair strands with dyeing cream containing 2-Chlor-4-aminophenol as developer and a coupler
Set-up: species or system Menschen
Conditions: dyeing cream with 20mMol 2-Chlor-4-aminophenol and 20mMol coupler, pH 9,0; applied without added oxidising agent, ratio cream:hair 4 : 1; 30min at 32°C; strands 80% grey, not pretreated
Procedure: Die Substanzen Hydrenol® D, Lorol® und Eumulgin® B2 wurden bei 80°C aufgeschmolzen, mit dem 80°C heißem Wasser, enthaltend Texapon® NSO und Dehyton® K, vermischt und unter starkem Rühren emulgiert. Danach wurde die Emulsion unter schwachem Rühren abgekühlt. Die Farbstoffvorprodukte wurden in dem 50°C heißem Wasser unter Zugabe von Natriumsulfit, Ammoniumsulfat und Ammoniak gelöst. Diese Farbstoffvorproduktlösung wurde zur Emulsion gegeben, mit Ammoniak der pH-Wert eingestellt und mit Wasser auf 100Gew.-% aufgefüllt. Es wurde bis zum Erreichen der Raumtemperatur weitergerührt.
Die so erhaltene Färbecreme wurde auf 5cm lange Strähnen standardisierten, zu 80% ergrauten, aber nicht besonders vorbehandelten Menschenhaares (Kerling Naturweiß) aufgetragen (Mengenverhältnis Farbstoffmischung: Haar betrug 4 : 1). Nach 30min Einwirkzeit bei 32°C wurde das Haar gespült, mit einem üblichen Haarwaschmittel ausgewaschen und anschließend getrocknet. Die Färbeergebnisse sind Tabelle I zu entnehmen. Tabelle I

Structure (SMILES): Cc1c(NCCO)cccc1NCCO [2,6-Bis-(2'-hydroxyethylamino)-toluol]
- Farbnuance: tiefviolett

Structure (SMILES): Nc1ccc(OCCCOc2ccc(N)cc2N)c(N)c1 [1,3-Bis-(2',4'-diaminophenoxy)-propan]
- Farbnuance: braunorange

Structure (SMILES): COc1ccc(NCCO)cc1N [2-Amino-4-(2'-hydroxyethylamino)-anisol]
- Farbnuance: rubin
